# Assay results reported in the supplement of paper PMC8728848.
# This is one part of the list.
# B1: CBP21 (Serratia marcescens), O83009 (protein)
# chain: MNKTSRTLLSLGLLSAAMFGVSQQANAHGYVESPASRAYQCKLQLNTQCGSVQYEPQSVEGLKGFPQAGPADGHIASADKSTFFELDQQTPTRWNKLNLKTGPNSFTWKLTARHSTTSWRYFITKPNWDASQPLTRASFDLTPFCQFNDGGAIPAAQVTHQCNIPADRSGSHVILAVWDIADTANAFYQAIDVNLSK
# Assays:
# Assay in all cases: glycan array binding signal (z-score within array); higher = stronger binding
# Details in all cases: glycan notation: IUPAC condensed, linker removed
# [1] = biological target: Man(a1-2)Man(a1-3)[Man(a1-2)Man(a1-6)]Man
# Outline: (§1)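 Columns mapping to the same glycan were averaged after glycan names were converted to IUPAC-condensed notation. The data come from 3228 arrays in the Consortium for Functional Glycomics database, limited to those with an available protein sequence. Binding is reported as a within-array Z-score averaged across arrays of one protein sequence and across linkers.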
# [2] = biological target: Man(a1-2)Man(a1-3)[Man(a1-2)Man(a1-6)]Man(a1-6)[Man(a1-2)Man(a1-2)Man(a1-3)]Man
# Outline: as §1
# [3] = biological target: Man(a1-2)Man(a1-3)[Man(a1-2)Man(a1-6)]Man(a1-6)[Man(a1-2)Man(a1-2)Man(a1-3)]Man(b1-4)GlcNAc(b1-4)GlcNAc
# Outline: as §1
# [4] = biological target: Man(a1-2)Man(a1-3)[Man(a1-6)]Man(a1-6)[Man(a1-2)Man(a1-3)]Man(b1-4)GlcNAc(b1-4)GlcNAc
# Outline: as §1
# [5] = biological target: Man(a1-2)Man(a1-6)[Man(a1-3)]Man(a1-6)[Man(a1-2)Man(a1-2)Man(a1-3)]Man
# Outline: as §1
# [6] = biological target: Man(a1-2)Man(a1-6)[Man(a1-3)]Man(a1-6)[Man(a1-2)Man(a1-2)Man(a1-3)]Man(b1-4)GlcNAc(b1-4)GlcNAc
# Outline: as §1
# Man(a1-3)[Man(a1-6)]Man = biological target: Man(a1-3)[Man(a1-6)]Man
# Outline: as §1
# [7] = biological target: Man(a1-3)[Man(a1-6)]Man(a1-6)[Man(a1-2)Man(a1-3)]Man(b1-4)GlcNAc(b1-4)GlcNAc
# Outline: as §1
# [8] = biological target: Man(a1-3)[Man(a1-6)]Man(a1-6)[Man(a1-3)]Man
# Outline: as §1
# [9] = biological target: Man(a1-3)[Man(a1-6)]Man(a1-6)[Man(a1-3)]Man(b1-4)GlcNAc(b1-4)GlcNAc
# Outline: as §1
# [10] = biological target: Man(a1-3)[Man(a1-6)]Man(b1-4)GlcNAc(b1-4)GlcNAc
# Outline: as §1
# [11] = biological target: Man(a1-3)[Man(a1-6)]Man(b1-4)GlcNAc(b1-4)[Fuc(a1-6)]GlcNAc
# Outline: as §1
# Man(a1-6)Man = biological target: Man(a1-6)Man
# Outline: as §1
# Man(b1-4)GlcNAc = biological target: Man(b1-4)GlcNAc
# Outline: as §1
# MurNAc(b1-4)GlcNAc = biological target: MurNAc(b1-4)GlcNAc
# Outline: as §1
# Neu5Ac(a2-3)Gal = biological target: Neu5Ac(a2-3)Gal
# Outline: as §1
# [12] = biological target: Neu5Ac(a2-3)Gal(b1-3)GalNAc
# Outline: as §1
# [13] = biological target: Neu5Ac(a2-3)Gal(b1-3)GalNAc(b1-3)Gal(a1-4)Gal(b1-4)Glc
# Outline: as §1
# [14] = biological target: Neu5Ac(a2-3)Gal(b1-3)GalNAc(b1-4)Gal(b1-4)Glc
# Outline: as §1
# [15] = biological target: Neu5Ac(a2-3)Gal(b1-3)GalNAc(b1-4)[Neu5Ac(a2-3)]Gal(b1-4)Glc
# Outline: as §1
# [16] = biological target: Neu5Ac(a2-3)Gal(b1-3)GalNAc(b1-4)[Neu5Ac(a2-8)Neu5Ac(a2-3)]Gal(b1-4)Glc
# Outline: as §1
# [17] = biological target: Neu5Ac(a2-3)Gal(b1-3)GalNAc6S
# Outline: as §1
# [18] = biological target: Neu5Ac(a2-3)Gal(b1-3)GlcNAc
# Outline: as §1
# [19] = biological target: Neu5Ac(a2-3)Gal(b1-3)GlcNAc(b1-2)Man
# Outline: as §1
# [20] = biological target: Neu5Ac(a2-3)Gal(b1-3)GlcNAc(b1-2)Man(a1-3)[GlcNAc(b1-4)][Neu5Ac(a2-3)Gal(b1-3)GlcNAc(b1-2)Man(a1-6)]Man(b1-4)GlcNAc(b1-4)GlcNAc
# Outline: as §1
# [21] = biological target: Neu5Ac(a2-3)Gal(b1-3)GlcNAc(b1-2)Man(a1-3)[Neu5Ac(a2-3)Gal(b1-3)GlcNAc(b1-2)Man(a1-6)]Man(b1-4)GlcNAc(b1-4)GlcNAc
# Outline: as §1
# [22] = biological target: Neu5Ac(a2-3)Gal(b1-3)GlcNAc(b1-2)[Neu5Ac(a2-3)Gal(b1-3)GlcNAc(b1-4)]Man(a1-6)[Neu5Ac(a2-3)Gal(b1-3)GlcNAc(b1-2)Man(a1-3)]Man(b1-4)GlcNAc(b1-4)GlcNAc
# Outline: as §1
# [23] = biological target: Neu5Ac(a2-3)Gal(b1-3)GlcNAc(b1-3)Gal(b1-3)GlcNAc
# Outline: as §1
# [24] = biological target: Neu5Ac(a2-3)Gal(b1-3)GlcNAc(b1-3)Gal(b1-4)GlcNAc
# Outline: as §1
# [25] = biological target: Neu5Ac(a2-3)Gal(b1-3)GlcNAc(b1-3)GalNAc
# Outline: as §1
# [26] = biological target: Neu5Ac(a2-3)Gal(b1-3)GlcNAc(b1-6)GalNAc
# Outline: as §1
# [27] = biological target: Neu5Ac(a2-3)Gal(b1-3)GlcNAc6S
# Outline: as §1
# [28] = biological target: Neu5Ac(a2-3)Gal(b1-3)[Fuc(a1-4)]GlcNAc
# Outline: as §1
# [29] = biological target: Neu5Ac(a2-3)Gal(b1-3)[Fuc(a1-4)]GlcNAc(b1-3)Gal(b1-3)[Fuc(a1-4)]GlcNAc
# Outline: as §1
# [30] = biological target: Neu5Ac(a2-3)Gal(b1-3)[Fuc(a1-4)]GlcNAc(b1-3)Gal(b1-4)[Fuc(a1-3)]GlcNAc
# Outline: as §1
# [31] = biological target: Neu5Ac(a2-3)Gal(b1-3)[GlcNAc(b1-6)]GalNAc
# Outline: as §1
# [32] = biological target: Neu5Ac(a2-3)Gal(b1-3)[Neu5Ac(a2-6)]GalNAc
# Outline: as §1
# [33] = biological target: Neu5Ac(a2-3)Gal(b1-3)[Neu5Ac(a2-6)]GlcNAc(b1-3)[Fuc(a1-3)[Gal(b1-4)]GlcNAc(b1-6)]Gal(b1-4)Glc
# Outline: as §1
# [34] = biological target: Neu5Ac(a2-3)Gal(b1-3)]Neu5Ac(a2-3)Gal(b1-4)]GlcNAc
# Outline: as §1
# Neu5Ac(a2-3)Gal(b1-4)Glc = biological target: Neu5Ac(a2-3)Gal(b1-4)Glc
# Outline: as §1
# [35] = biological target: Neu5Ac(a2-3)Gal(b1-4)GlcNAc
# Outline: as §1
# [36] = biological target: Neu5Ac(a2-3)Gal(b1-4)GlcNAc(b1-2)Man
# Outline: as §1
# [37] = biological target: Neu5Ac(a2-3)Gal(b1-4)GlcNAc(b1-2)Man(a1-3)[GlcNAc(b1-4)][Neu5Ac(a2-3)Gal(b1-4)GlcNAc(b1-2)Man(a1-6)]Man(b1-4)GlcNAc(b1-4)GlcNAc
# Outline: as §1
# [38] = biological target: Neu5Ac(a2-3)Gal(b1-4)GlcNAc(b1-2)Man(a1-3)[Neu5Ac(a2-3)Gal(b1-4)GlcNAc(b1-2)Man(a1-6)]Man(b1-4)GlcNAc(b1-4)GlcNAc
# Outline: as §1
# [39] = biological target: Neu5Ac(a2-3)Gal(b1-4)GlcNAc(b1-2)Man(a1-3)[Neu5Ac(a2-3)Gal(b1-4)GlcNAc(b1-2)Man(a1-6)]Man(b1-4)GlcNAc(b1-4)[Fuc(a1-6)]GlcNAc
# Outline: as §1
binder,measurement,setting,value
B1,glycan array binding signal (z-score),[1],-1.5
same,glycan array binding signal (z-score),[2],-1.08
same,glycan array binding signal (z-score),[3],2.53
same,glycan array binding signal (z-score),[4],-0.367
same,glycan array binding signal (z-score),[5],-0.856
same,glycan array binding signal (z-score),[6],0.074
same,glycan array binding signal (z-score),Man(a1-3)[Man(a1-6)]Man,-0.35
same,glycan array binding signal (z-score),[7],1.13
same,glycan array binding signal (z-score),[8],-0.45
same,glycan array binding signal (z-score),[9],0.328
same,glycan array binding signal (z-score),[10],-0.38
same,glycan array binding signal (z-score),[11],-0.807
same,glycan array binding signal (z-score),Man(a1-6)Man,-0.664
same,glycan array binding signal (z-score),Man(b1-4)GlcNAc,0.685
same,glycan array binding signal (z-score),MurNAc(b1-4)GlcNAc,0.265
same,glycan array binding signal (z-score),Neu5Ac(a2-3)Gal,0.034
same,glycan array binding signal (z-score),[12],-1.23
same,glycan array binding signal (z-score),[13],1.24
same,glycan array binding signal (z-score),[14],0.117
same,glycan array binding signal (z-score),[15],-0.874
same,glycan array binding signal (z-score),[16],-0.909
same,glycan array binding signal (z-score),[17],1.63
same,glycan array binding signal (z-score),[18],-0.85
same,glycan array binding signal (z-score),[19],0.824
same,glycan array binding signal (z-score),[20],-0.106
same,glycan array binding signal (z-score),[21],-0.241
same,glycan array binding signal (z-score),[22],0.279
same,glycan array binding signal (z-score),[23],0.18
same,glycan array binding signal (z-score),[24],0.174
same,glycan array binding signal (z-score),[25],0.76
same,glycan array binding signal (z-score),[26],0.458
same,glycan array binding signal (z-score),[27],-0.561
same,glycan array binding signal (z-score),[28],-0.089
same,glycan array binding signal (z-score),[29],-0.38
same,glycan array binding signal (z-score),[30],0.252
same,glycan array binding signal (z-score),[31],1.23
same,glycan array binding signal (z-score),[32],-0.61
same,glycan array binding signal (z-score),[33],0.826
same,glycan array binding signal (z-score),[34],1.37
same,glycan array binding signal (z-score),Neu5Ac(a2-3)Gal(b1-4)Glc,-0.718
same,glycan array binding signal (z-score),[35],0.215
same,glycan array binding signal (z-score),[36],1.5
same,glycan array binding signal (z-score),[37],-0.507
same,glycan array binding signal (z-score),[38],-0.395
same,glycan array binding signal (z-score),[39],-0.858

# Reprinted from the entries so far (three entries):
binder,measurement,setting,value
B1,glycan array binding signal (z-score),[33],0.826
same,glycan array binding signal (z-score),[34],1.37
same,glycan array binding signal (z-score),Neu5Ac(a2-3)Gal(b1-4)Glc,-0.718
